Paper PMC2680976
These are yes or no findings as the source states them, for the method shown. Binding seen in cells or lysates may run through a third protein. Some results given as binding are weak or reduced against the parent protein; the word gives no strength.

Amino acid sequences for entries named in this document (tags omitted). A change or cut given only in a name is not applied to a line headed by its entry. Chains listed by the source or under a name are the forms on record and can include a tag or linker. Residues count along the entry.
UniProt P43119: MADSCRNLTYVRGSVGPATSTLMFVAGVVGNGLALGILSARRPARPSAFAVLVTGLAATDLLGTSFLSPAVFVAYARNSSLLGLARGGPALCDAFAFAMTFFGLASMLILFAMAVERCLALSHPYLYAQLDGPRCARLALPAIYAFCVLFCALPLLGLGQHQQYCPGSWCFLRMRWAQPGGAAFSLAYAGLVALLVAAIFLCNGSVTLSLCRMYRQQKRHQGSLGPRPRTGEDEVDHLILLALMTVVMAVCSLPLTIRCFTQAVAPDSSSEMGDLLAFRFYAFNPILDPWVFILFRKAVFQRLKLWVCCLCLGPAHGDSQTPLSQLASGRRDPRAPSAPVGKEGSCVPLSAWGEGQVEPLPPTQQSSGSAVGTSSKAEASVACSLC
hIP^Δ312, HA-tagged truncation of the human prostacyclin receptor: residues 1-311 of P43119
hIP^Δ307, HA-tagged truncation of the human prostacyclin receptor: residues 1-306 of P43119
UniProt P20339: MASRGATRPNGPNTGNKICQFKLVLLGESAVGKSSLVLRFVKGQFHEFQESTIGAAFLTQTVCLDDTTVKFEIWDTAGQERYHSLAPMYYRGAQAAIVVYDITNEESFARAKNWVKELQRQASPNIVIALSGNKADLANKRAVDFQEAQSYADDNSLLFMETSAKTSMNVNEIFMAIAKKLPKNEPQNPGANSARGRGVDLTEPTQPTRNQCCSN

Columns and labels:
[1] = biological target: human prostacyclin receptor (hIP), HA-tagged, wild type (human) (UniProt P43119); test: co-IP; HEK 293 cells stably expressing HA-tagged hIP, hIP^Δ312 or hIP^Δ307, transfected with GFP-Rab5a forms; vehicle or 1 μM cicaprost 2 h at 37 °C; lysis in RIP buffer; immunoprecipitation with anti-HA 101R and protein G Sepharose; blot with anti-Rab5
[2] = biological target: human prostacyclin receptor (hIP), HA-tagged, wild type (human) (UniProt P43119); test: co-IP; data not shown: anti-HA immunoprecipitates of HEK.hIP cells transfected with GFP-Rab5a, vehicle or 1 μM cicaprost; blot with anti-GFP
[3] = biological target: hIP^Δ307, HA-tagged truncation of the human prostacyclin receptor (human) (UniProt P43119); test: co-IP; HEK 293 cells stably expressing HA-tagged hIP, hIP^Δ312 or hIP^Δ307, transfected with GFP-Rab5a forms; vehicle or 1 μM cicaprost 2 h at 37 °C; lysis in RIP buffer; immunoprecipitation with anti-HA 101R and protein G Sepharose; blot with anti-Rab5
[4] = biological target: hIP^Δ312, HA-tagged truncation of the human prostacyclin receptor (human) (UniProt P43119); test: as above

Row | binding [1] | binding [2] | binding [3] | binding [4] | Substance
1 | binds |  |  |  | GFP-tagged Rab5a^S34N (dominant negative, GTP-binding defective) (from UniProt P20339 1-215)
2 | binds |  |  |  | GFP-tagged Rab5a^Q79L (constitutively active, GTPase defective) (from UniProt P20339 1-215)
3 | binds | binds | binds | binds | GFP-tagged Rab5a, wild type (from UniProt P20339 1-215)
